Data source: PubChem BioAssay AID1159584 (Peter MacCallum Cancer Centre, 2016)
Aim: 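Knock-downs that harm CDH1-null cells more than parental MCF10A cells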 (primary screen). System: human MCF10A breast epithelial cells, parental and CDH1-null. Reagent: siRNA against human genes. Measurement: 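Cell viability by CellTiter-Glo ATP luminescence, each line scaled to the mean of mock wells across plates, then CDH1-null over parental ratio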. Reading the numbers: CDH1-null / parental viability ratio: higher = CDH1-null cells survive relatively better than parental; CDH1-null viability vs mock: higher = more viable CDH1-null cells; parental viability vs mock: higher = more viable parental cells.
The deposit covers about 18,000 reagents; shown is a part drawn at random. No sequences are given here. Not stated in the record: the amount of reagent, the time to read-out.

| gene | CDH1-null / parental viability ratio | CDH1-null viability vs mock (fraction of mock) | parental viability vs mock (fraction of mock) |
| --- | --- | --- | --- |
| MAD2L2 | 0.71 | 0.5 | 0.7 |
| RPTOR | 0.79 | 0.48 | 0.61 |
| PHKG1 | 0.71 | 0.68 | 0.96 |
| ELFN2 | 0.92 | 0.66 | 0.72 |
| H4C7 | 0.95 | 0.82 | 0.86 |
| LAYN | 0.77 | 0.88 | 1.15 |
| PUS7 | 0.9 | 0.6 | 0.67 |
| ARID1B | 0.9 | 0.54 | 0.6 |
| RPP30 | 1.16 | 0.58 | 0.5 |
| ZIC5 | 1.38 | 0.77 | 0.56 |
| HHATL | 0.93 | 0.68 | 0.73 |
| ZNF519 | 1.05 | 1.16 | 1.11 |
| TDRP | 0.74 | 0.46 | 0.62 |
| TEDC2 | 0.93 | 0.77 | 0.83 |
| MAP1A | 1.33 | 0.56 | 0.42 |
| UBAC2 | 1 | 0.78 | 0.78 |
| ITGA3 | 0.89 | 0.64 | 0.72 |
| UPK1B | 1.07 | 0.92 | 0.86 |
| CPB1 | 1.06 | 0.68 | 0.64 |
| OR11G2 | 1.05 | 0.88 | 0.84 |
| KCNK15 | 1.2 | 1.01 | 0.84 |
| PTPMT1 | 1.3 | 0.86 | 0.66 |
| FAM177A1 | 0.64 | 0.23 | 0.36 |
| C1orf35 | 1.17 | 0.75 | 0.64 |
| LRRK1 | 1.12 | 0.94 | 0.84 |
| UBXN10 | 1.08 | 0.82 | 0.76 |
| RLBP1 | 0.91 | 0.67 | 0.74 |
| OR5W2 | 0.86 | 0.62 | 0.72 |
| UBA7 | 1 | 1.02 | 1.02 |
| SSR2 | 1.04 | 0.99 | 0.95 |
| LHFPL5 | 1.23 | 0.53 | 0.43 |
| DUSP15 | 1.21 | 0.8 | 0.66 |
| TRIM24 | 1.03 | 0.66 | 0.64 |
| BMP2K | 0.99 | 0.91 | 0.92 |
| ARL4A | 1.07 | 1.04 | 0.97 |
| ETS2 | 0.95 | 0.9 | 0.95 |
| SELL | 1.34 | 1.02 | 0.76 |
| TENM3 | 0.92 | 0.9 | 0.98 |
| TAS2R60 | 1.23 | 1.18 | 0.96 |
| BSG | 0.83 | 0.6 | 0.72 |
| LDHD | 1.17 | 0.82 | 0.7 |
| HMG20A | 1.03 | 0.76 | 0.74 |
| EPHA1 | 0.88 | 0.84 | 0.96 |
| CCZ1B | 0.98 | 0.96 | 0.98 |
| NAT14 | 0.93 | 0.54 | 0.58 |
| SPTLC2 | 0.97 | 0.83 | 0.86 |
| SASS6 | 1.09 | 0.83 | 0.76 |
| SVIL | 1.11 | 0.78 | 0.7 |
| LRWD1 | 0.99 | 0.7 | 0.71 |
| RPL10L | 1.2 | 0.48 | 0.4 |
| FAM3D | 1 | 0.85 | 0.85 |
| TBC1D22A | 1.2 | 1.12 | 0.93 |
| SLC7A13 | 0.89 | 0.82 | 0.92 |
| RPS17P16 | 1.06 | 0.86 | 0.81 |
| EMP1 | 1.03 | 0.95 | 0.92 |
| SLF2 | 1.1 | 0.74 | 0.67 |
| ACSM1 | 1.14 | 0.32 | 0.28 |
| TBXA2R | 0.7 | 0.6 | 0.86 |
| UBE2O | 1.25 | 0.8 | 0.64 |
| TRAT1 | 1.85 | 0.48 | 0.26 |
| FBXL22 | 0.88 | 0.6 | 0.68 |
| CCDC74B | 0.94 | 0.73 | 0.78 |
| WASHC2C | 0.99 | 1.03 | 1.04 |
| MFSD12 | 1.27 | 0.38 | 0.3 |
| NKD2 | 0.84 | 0.8 | 0.95 |
| PEX5L | 0.98 | 0.64 | 0.65 |
| PPIA | 1.03 | 0.72 | 0.7 |
| ZNF598 | 1.35 | 1.11 | 0.82 |
| COL4A6 | 1.26 | 1.08 | 0.86 |
| SARS1 | 0.81 | 0.52 | 0.64 |
| CCDC59 | 0.96 | 0.26 | 0.27 |
| DIRAS2 | 1.16 | 1.06 | 0.91 |
| CNTNAP2 | 1.24 | 1.34 | 1.08 |
| ME1 | 1.08 | 0.94 | 0.87 |
| GCKR | 1.07 | 0.94 | 0.88 |
| TNFSF13B | 1.26 | 0.72 | 0.57 |
| OR10K1 | 1.24 | 1.17 | 0.94 |
| TNRC6B | 0.96 | 0.92 | 0.96 |
| RPF2 | 0.7 | 0.45 | 0.64 |
| RMP64 | 0.71 | 0.36 | 0.51 |
| SLC45A4 | 1.03 | 0.64 | 0.62 |
| EXOC3L2 | 1.18 | 1.09 | 0.92 |
| LCP2 | 1.3 | 0.96 | 0.74 |
| CCDC78 | 1.5 | 0.6 | 0.4 |
| ACSL1 | 0.72 | 0.55 | 0.76 |
| DNAJB14 | 0.89 | 0.82 | 0.92 |
| TM9SF1 | 0.88 | 0.81 | 0.92 |

In a second layout: results already given
{"gene":"SSR2","CDH1-null / parental viability ratio":1.04,"CDH1-null viability vs mock (fraction of mock)":0.99,"parental viability vs mock (fraction of mock)":0.95}
{"gene":"LHFPL5","CDH1-null / parental viability ratio":1.23,"CDH1-null viability vs mock (fraction of mock)":0.53,"parental viability vs mock (fraction of mock)":0.43}
{"gene":"DUSP15","CDH1-null / parental viability ratio":1.21,"CDH1-null viability vs mock (fraction of mock)":0.8,"parental viability vs mock (fraction of mock)":0.66}
{"gene":"TRIM24","CDH1-null / parental viability ratio":1.03,"CDH1-null viability vs mock (fraction of mock)":0.66,"parental viability vs mock (fraction of mock)":0.64}
{"gene":"BMP2K","CDH1-null / parental viability ratio":0.99,"CDH1-null viability vs mock (fraction of mock)":0.91,"parental viability vs mock (fraction of mock)":0.92}
{"gene":"ARL4A","CDH1-null / parental viability ratio":1.07,"CDH1-null viability vs mock (fraction of mock)":1.04,"parental viability vs mock (fraction of mock)":0.97}
{"gene":"ETS2","CDH1-null / parental viability ratio":0.95,"CDH1-null viability vs mock (fraction of mock)":0.9,"parental viability vs mock (fraction of mock)":0.95}
{"gene":"SELL","CDH1-null / parental viability ratio":1.34,"CDH1-null viability vs mock (fraction of mock)":1.02,"parental viability vs mock (fraction of mock)":0.76}
{"gene":"TENM3","CDH1-null / parental viability ratio":0.92,"CDH1-null viability vs mock (fraction of mock)":0.9,"parental viability vs mock (fraction of mock)":0.98}
{"gene":"TAS2R60","CDH1-null / parental viability ratio":1.23,"CDH1-null viability vs mock (fraction of mock)":1.18,"parental viability vs mock (fraction of mock)":0.96}
{"gene":"BSG","CDH1-null / parental viability ratio":0.83,"CDH1-null viability vs mock (fraction of mock)":0.6,"parental viability vs mock (fraction of mock)":0.72}
{"gene":"LDHD","CDH1-null / parental viability ratio":1.17,"CDH1-null viability vs mock (fraction of mock)":0.82,"parental viability vs mock (fraction of mock)":0.7}
{"gene":"HMG20A","CDH1-null / parental viability ratio":1.03,"CDH1-null viability vs mock (fraction of mock)":0.76,"parental viability vs mock (fraction of mock)":0.74}
{"gene":"EPHA1","CDH1-null / parental viability ratio":0.88,"CDH1-null viability vs mock (fraction of mock)":0.84,"parental viability vs mock (fraction of mock)":0.96}
